The results in this text go back to patent US20030125363A1, “Riluzole and alpha-tocopherol combination” (priority 1998, published 2003).

The subject of the test is patients suffering from ALS. The note with it: fatigability.

Molecules are shown by their SMILES.

As for `Nc1nc2ccc(OC(F)(F)F)cc2s1` [RILUZOLE AND PLACEBO, 2-amino-6-trifluoromethoxybenzothiazole], the “Δ M0-M3 (VAS)” value (change of mean value between inclusion and 3 months) was determined as 17.3 mm. The “VAS at M3” value (mean value, at 3 months) was determined as 65.7 mm. In addition, the “VAS at M0” value (mean value, baseline at inclusion M0) was determined as 48.4 mm.
